In PMC9655635:
No constants are given. Whether binding was seen depends on the method and setting. Binding seen in cells or lysates may run through a third protein. Some entries that bind do so weakly or less than the wild type.

By UniProt entry, the sequences of proteins in these tests, tags left out.
UniProt Q9UJQ4: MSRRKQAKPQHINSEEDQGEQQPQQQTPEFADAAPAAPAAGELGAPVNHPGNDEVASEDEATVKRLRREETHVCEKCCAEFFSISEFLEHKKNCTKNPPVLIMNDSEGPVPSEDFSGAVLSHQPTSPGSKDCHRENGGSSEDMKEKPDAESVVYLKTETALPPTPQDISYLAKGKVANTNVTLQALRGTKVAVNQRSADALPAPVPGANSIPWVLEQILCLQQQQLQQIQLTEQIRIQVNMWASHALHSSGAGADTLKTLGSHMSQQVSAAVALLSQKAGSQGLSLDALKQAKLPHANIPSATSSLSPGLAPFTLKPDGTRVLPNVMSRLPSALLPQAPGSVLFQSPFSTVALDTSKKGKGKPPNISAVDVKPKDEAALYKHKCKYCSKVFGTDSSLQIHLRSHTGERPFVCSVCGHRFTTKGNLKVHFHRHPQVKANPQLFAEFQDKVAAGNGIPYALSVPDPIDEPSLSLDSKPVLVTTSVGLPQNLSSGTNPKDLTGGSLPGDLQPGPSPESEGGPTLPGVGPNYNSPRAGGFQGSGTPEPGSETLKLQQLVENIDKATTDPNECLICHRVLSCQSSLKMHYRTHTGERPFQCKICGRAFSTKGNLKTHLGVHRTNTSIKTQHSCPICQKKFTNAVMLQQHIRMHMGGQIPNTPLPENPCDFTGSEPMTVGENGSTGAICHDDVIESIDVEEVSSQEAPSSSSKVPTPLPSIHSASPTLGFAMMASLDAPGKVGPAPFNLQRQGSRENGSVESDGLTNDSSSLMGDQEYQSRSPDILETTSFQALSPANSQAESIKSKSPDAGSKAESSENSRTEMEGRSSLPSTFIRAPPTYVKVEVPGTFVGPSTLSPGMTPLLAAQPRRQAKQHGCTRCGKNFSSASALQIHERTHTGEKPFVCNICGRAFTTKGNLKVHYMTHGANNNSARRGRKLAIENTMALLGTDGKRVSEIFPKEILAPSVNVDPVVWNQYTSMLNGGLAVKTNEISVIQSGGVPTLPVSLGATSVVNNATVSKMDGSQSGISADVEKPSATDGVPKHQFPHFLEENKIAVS
UniProt Q09028: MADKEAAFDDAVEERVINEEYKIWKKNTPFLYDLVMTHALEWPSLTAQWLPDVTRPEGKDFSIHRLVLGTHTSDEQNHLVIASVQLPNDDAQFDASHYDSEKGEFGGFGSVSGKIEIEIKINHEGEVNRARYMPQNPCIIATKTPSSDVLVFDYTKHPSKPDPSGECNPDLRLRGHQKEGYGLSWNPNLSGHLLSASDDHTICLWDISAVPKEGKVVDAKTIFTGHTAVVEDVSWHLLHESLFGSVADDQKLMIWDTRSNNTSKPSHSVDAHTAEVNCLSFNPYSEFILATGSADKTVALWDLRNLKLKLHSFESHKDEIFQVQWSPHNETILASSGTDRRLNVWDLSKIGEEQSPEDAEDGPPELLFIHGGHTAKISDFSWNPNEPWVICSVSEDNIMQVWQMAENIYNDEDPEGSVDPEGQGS

Molecular target: SALL4 (human) (UniProt Q9UJQ4)
Test: co-IP; SALL4 antibody incubated with 500 ug of cell lysate (RIPA lysis buffer) for 2 h at 4 °C, then Protein A/G PLUS-Agarose beads overnight at 4 °C; beads washed three times with lysis buffer; blot developed against RBBp4; control IgG as negative control

binding: binds
Substance: retinoblastoma binding protein 4 (RBBp4) (from UniProt Q09028 1-425)
